Values quoted from earlier work, collected in patent US10328118B2, “High purity oritavancin and method of producing same” (priority 2014, dated 2019).
At least one structure is not confirmed: it was looked up by name or label, or the drawing left a doubt.

Tested on: coagulase-negative staphylococci
Conditions: compared with teicoplanin

## CN[C@H]1C(=O)N[C@@H]2Cc3ccc(cc3)Oc3cc4cc(c3O[C@@H]3O[C@H](C(=O)O)[C@@H](O)[C@H](O)[C@H]3NC(=O)CCCCCCCCC(C)C)Oc3ccc(cc3Cl)[C@@H](O)[C@@H]3NC(=O)[C@H](NC(=O)[C@@H]4NC(=O)[C@@H](NC2=O)c2cc(cc(O)c2Cl)Oc2cc1ccc2O)c1ccc(O)c(c1)-c1c(O[C@H]2O[C@H](CO)[C@@H](O)[C@H](O)[C@@H]2O)cc(O)cc1[C@@H](C(=O)NCCCN(C)C)NC3=O [dalbavancin]
  activity relative to teicoplanin: more potent than teicoplanin by an order of magnitude
